Here are results for one molecule from PMC4363703.

The experiment addresses T1, Sam50 (human (endogenous in HeLa)) (UniProt Q9Y512).
T1 sequence: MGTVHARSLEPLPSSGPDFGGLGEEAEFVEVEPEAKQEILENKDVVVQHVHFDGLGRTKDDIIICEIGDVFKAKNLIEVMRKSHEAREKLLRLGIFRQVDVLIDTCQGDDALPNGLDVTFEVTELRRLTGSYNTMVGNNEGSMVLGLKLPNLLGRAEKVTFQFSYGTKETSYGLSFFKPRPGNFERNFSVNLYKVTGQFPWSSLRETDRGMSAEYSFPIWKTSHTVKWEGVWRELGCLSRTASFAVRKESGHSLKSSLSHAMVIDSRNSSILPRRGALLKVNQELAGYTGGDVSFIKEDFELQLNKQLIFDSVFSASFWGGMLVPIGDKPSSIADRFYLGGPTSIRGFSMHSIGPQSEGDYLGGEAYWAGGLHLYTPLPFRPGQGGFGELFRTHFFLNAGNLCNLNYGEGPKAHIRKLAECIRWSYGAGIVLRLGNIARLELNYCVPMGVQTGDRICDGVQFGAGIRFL
The experiment can be described thus: native gel or EMSA; 35S-labeled Mic23/ApoO imported at 37°C into isolated mitochondria (50 μg per lane) of non-induced and induced knockdown cell lines or HeLa cells, lysed in 1% digitonin buffer, 4-10% BN-PAGE, autoradiography; >1 MDa complex.

These are yes or no findings as the source states them, for the method shown. Some binding calls cover weakened binding; strength is not graded here.

B1: 35S-labeled Mic23/ApoO precursor (protein, UniProt Q9BUR5 1-198)
chain: MFKVIQRSVGPASLSLLTFKVYAAPKKDSPPKNSVKVDELSLYSVPEGQSKYVEEARSQLEESISQLRHYCEPYTTWCQETYSQTKPKMQSLVQWGLDSYDYLQNAPPGFFPRLGVIGFAGLIGLLLARGSKIKKLVYPPGFMGLAASLYYPQQAIVFAQVSGERLYDWGLRGYIVIEDLWKENFQKPGNVKNSPGTK
modifications: 35S-methionine/cysteine labelled
With B1, the binding entry is given as “binds”.
